Results from paper PMC6357452.
These are yes or no findings as the source states them, for the method shown. Binding seen in cells or lysates may run through a third protein. Some binding calls cover weakened binding; strength is not graded here.

Protein sequences, listed by entry. Tags and fused reporters are not part of them.
UniProt P48431: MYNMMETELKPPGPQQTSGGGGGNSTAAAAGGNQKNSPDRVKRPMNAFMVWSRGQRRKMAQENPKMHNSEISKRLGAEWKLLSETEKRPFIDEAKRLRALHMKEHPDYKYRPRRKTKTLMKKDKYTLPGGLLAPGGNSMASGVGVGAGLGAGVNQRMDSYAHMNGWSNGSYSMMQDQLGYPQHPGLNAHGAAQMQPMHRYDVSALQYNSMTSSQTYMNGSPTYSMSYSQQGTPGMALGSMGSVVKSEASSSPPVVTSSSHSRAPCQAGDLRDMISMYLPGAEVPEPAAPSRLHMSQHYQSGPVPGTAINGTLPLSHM

Target: T1, CDX2 (human (endogenous in AGS)) (UniProt Q99626)
T1 sequence: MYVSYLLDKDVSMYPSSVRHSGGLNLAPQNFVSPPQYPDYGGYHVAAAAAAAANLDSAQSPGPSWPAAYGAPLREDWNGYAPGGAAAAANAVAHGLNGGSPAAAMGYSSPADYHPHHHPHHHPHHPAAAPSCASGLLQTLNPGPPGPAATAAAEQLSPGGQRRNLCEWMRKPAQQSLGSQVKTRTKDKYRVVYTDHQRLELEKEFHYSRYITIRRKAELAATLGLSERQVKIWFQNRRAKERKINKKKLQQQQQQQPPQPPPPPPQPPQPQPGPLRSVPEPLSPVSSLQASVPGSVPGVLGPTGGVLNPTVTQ
Test: co-IP; endogenous proteins in AGS cell lysate (Pierce IP Lysis Buffer); rabbit anti-Sox2 mAb and rabbit anti-CDX2 mAb as capture antibodies on protein G magnetic beads; normal rabbit IgG as negative control; western blot of the eluate; the legend calls it cross-linking Co-IP

SOX2 (from UniProt P48431 1-317)
binding: binds
